Measurements taken from patent US20190062420A1.
No constants are given. Whether binding was seen depends on the method and setting. A result given as binding can be weak or reduced; the word gives no strength.

B1: OX40SF2IgG2sigma_R2BS29_LC-C (bispecific antibody)
heavy: QVQLVQSGAEVKKPGSSVKVSCKASGYTFKDYTMHWVRQAPGQGLEWIGGIYPNNGGSTYNQNFKDRVTLTADKSTSTAYMELSSLRSEDTAVYYCARMGYHGPHLDFDVWGQGTTVTVSSASTKGPSVFPLAPCSRSTSESTAALGCLVKDYFPEPVTVSWNSGALTSGVHTFPAVLQSSGLYSLSSVVTVPSSNFGTQTYTCNVDHKPSNTKVDKTVERKCCVECPPCPAPPAAASSVFLFPPKPKDTLMISRTPEVTCVVVDVSAEDPEVQFNWYVDGVEVHNAKTKPREEQFNSTFRVVSVLTVLHQDWLNGKEYKCKVSNKGLPSSIEKTISKTKGQPREPQVYTLPPSREEMTKNQVSLTCLVKGFYPSDIAVEWESNGQPENNYKTTPPMLDSDGSFFLYSKLTVDKSRWQQGNVFSCSVMHEALHNHYTQKSLSLSPGK
light: DIQMTQSPSSLSASVGDRVTITCKASQDVGAAVAWYQQKPGKAPKLLIYWASTRHTGVPSRFSGSGSGTDFTLTISSLQPEDFATYYCQQYINYPLTFGGGTKVEIKRTVAAPSVFIFPPSDEQLKSGTASVVCLLNNFYPREAKVQWKVDNALQSGNSQESVTEQDSKDSTYSLSSTLTLSKADYEKHKVYACEVTHQGLSSPVTKSFNRGECGGGGSGGGGSGGGGSGGGGSMLPAPKNLVVSRVTEDSARLSWTAPDAAFDSFPIYYWEYRVGGEAIVLTVPGSERSYDLTGLKPGTEYFVYINGVKGGEESRPLSAIFTT
B2: OX40SF2IgG2sigma_R2BS29_LC-N (bispecific antibody)
heavy: B1 heavy
light: LPAPKNLVVSRVTEDSARLSWTAPDAAFDSFPIYYWEYRVGGEAIVLTVPGSERSYDLTGLKPGTEYFVYINGVKGGEESRPLSAIFTTGGGGSGGGGSGGGGSGGGGSDIQMTQSPSSLSASVGDRVTITCKASQDVGAAVAWYQQKPGKAPKLLIYWASTRHTGVPSRFSGSGSGTDFTLTISSLQPEDFATYYCQQYINYPLTFGGGTKVEIKRTVAAPSVFIFPPSDEQLKSGTASVVCLLNNFYPREAKVQWKVDNALQSGNSQESVTEQDSKDSTYSLSSTLTLSKADYEKHKVYACEVTHQGLSSPVTKSFNRGEC
B3: OX40SF2IgG2sigma_R2BS29_HC-C (bispecific antibody)
heavy: QVQLVQSGAEVKKPGSSVKVSCKASGYTFKDYTMHWVRQAPGQGLEWIGGIYPNNGGSTYNQNFKDRVTLTADKSTSTAYMELSSLRSEDTAVYYCARMGYHGPHLDFDVWGQGTTVTVSSASTKGPSVFPLAPCSRSTSESTAALGCLVKDYFPEPVTVSWNSGALTSGVHTFPAVLQSSGLYSLSSVVTVPSSNFGTQTYTCNVDHKPSNTKVDKTVERKCCVECPPCPAPPAAASSVFLFPPKPKDTLMISRTPEVTCVVVDVSAEDPEVQFNWYVDGVEVHNAKTKPREEQFNSTFRVVSVLTVLHQDWLNGKEYKCKVSNKGLPSSIEKTISKTKGQPREPQVYTLPPSREEMTKNQVSLTCLVKGFYPSDIAVEWESNGQPENNYKTTPPMLDSDGSFFLYSKLTVDKSRWQQGNVFSCSVMHEALHNHYTQKSLSLSPGKGGGGGSGGGGSGGGGSGGGGSLPAPKNLVVSRVTEDSARLSWTAPDAAFDSFPIYYWEYRVGGEAIVLTVPGSERSYDLTGLKPGTEYFVYINGVKGGEESRPLSAIFTT
light: DIQMTQSPSSLSASVGDRVTITCKASQDVGAAVAWYQQKPGKAPKLLIYWASTRHTGVPSRFSGSGSGTDFTLTISSLQPEDFATYYCQQYINYPLTFGGGTKVEIKRTVAAPSVFIFPPSDEQLKSGTASVVCLLNNFYPREAKVQWKVDNALQSGNSQESVTEQDSKDSTYSLSSTLTLSKADYEKHKVYACEVTHQGLSSPVTKSFNRGEC
B4: OX40SF2IgG2sigma_R2BS29_HC-N (bispecific antibody)
heavy: LPAPKNLVVSRVTEDSARLSWTAPDAAFDSFPIYYWEYRVGGEAIVLTVPGSERSYDLTGLKPGTEYFVYINGVKGGEESRPLSAIFTTGGGGSGGGGSGGGGSGGGGSQVQLVQSGAEVKKPGSSVKVSCKASGYTFKDYTMHWVRQAPGQGLEWIGGIYPNNGGSTYNQNFKDRVTLTADKSTSTAYMELSSLRSEDTAVYYCARMGYHGPHLDFDVWGQGTTVTVSSASTKGPSVFPLAPCSRSTSESTAALGCLVKDYFPEPVTVSWNSGALTSGVHTFPAVLQSSGLYSLSSVVTVPSSNFGTQTYTCNVDHKPSNTKVDKTVERKCCVECPPCPAPPAAASSVFLFPPKPKDTLMISRTPEVTCVVVDVSAEDPEVQFNWYVDGVEVHNAKTKPREEQFNSTFRVVSVLTVLHQDWLNGKEYKCKVSNKGLPSSIEKTISKTKGQPREPQVYTLPPSREEMTKNQVSLTCLVKGFYPSDIAVEWESNGQPENNYKTTPPMLDSDGSFFLYSKLTVDKSRWQQGNVFSCSVMHEALHNHYTQKSLSLSPGK
light: B3 light

The binders below were run against FcγRIIA protein (human) (assay: ELISA; FcγRIIA protein coated on plate, anti-human IgG-HRP detection).

Row | binding | Binder
1 | binds | B1
2 | binds | B2
3 | binds | B3
4 | binds | B4
